Some results were stated once for a whole list of compounds, not compound by compound.
System: A549 cells
Test: Cell proliferation assay (CellTiter-Glo), K-Ras G12S cells
Format: cell-based
Conditions: G12D cell line such as GP2D relative to G12S cell line such as A549
Experimental: A549 (ATCC CRL-185) and LS123 (ATCC CRL-255) cell lines comprise a G12S mutation and can be used to assess Ras cellular signaling in vitro, e.g., in response to the compounds herein. A549 culture medium is prepared with RPMI-1640 and 10% heat-inactivated FBS. LS123 culture medium is prepared with RPMI-1640 and 10% heat-inactivated FBS. A CellTiter-Glo (CTG) luminescent based assay (Promega) is used to assess growth of the cells, as a measurement of the ability of the compounds herein to inhibit Ras signaling in the cells. The cells (e.g., 800 per well) are seeded in their respective culture medium in standard tissue culture-treated 384-well format plates (Falcon #08-772-116) or ultra-low attachment surface 384-well format plates (S-Bio #MS-9384WZ). The day after plating, cells are treated with a dilution series (e.g., a 10 point 3-fold dilution series) of the compounds herein (e.g., approximately 40 μl final volume per well). Cell viability can be monitored (e.g., approximately 6 days later) according to the manufacturer's recommended instructions, where the CellTiter-Glo reagent is added (e.g., approximately 10 μl), vigorously mixed, covered, and placed on a plate shaker (e.g., approximately for 20 min) to ensure sufficient cell lysis prior to assessment of luminescent signal. The IC50 values are determined using the four parameter fit. The resulting IC50 value is a measurement of the ability of the compounds herein to reduce cell growth of Ras-driven cells (e.g., tumor cell lines) in vitro and/or in vivo.

Compound | ratio of IC50 against a G12D cell line to IC50 against a G12S cell line
N#Cc1c(N)sc2c(F)ccc(-c3c(Cl)cc4c(N5CCOC6CN(C(=O)n7cncn7)CC65)nc(OC[C@@]56CCCN5C[C@H](F)C6)nc4c3F)c12 (stereo partly drawn) [Compound A218, 4-(4-(6-(1H-1,2,4-triazole-1-carbonyl)hexahydropyrrolo[3,4-b][1,4]oxazin-4(4aH)-yl)-6-chloro-8-fluoro-2-(((2R,7aS)-2-fluorotetrahydro-1H-pyrrolizin-7a(5H)-yl)methoxy)quinazolin-7-yl)-2-amino-7-fluorobenzo-[b]thiophene-3-carbonitrile] | greater than 1 fold
Nc1nc2c(-c3c(Cl)cc4c(N5CCCC6(CN(C(=O)n7cncn7)C6)C5)nc(OC[C@@]56CCCN5C[C@H](F)C6)nc4c3F)ccc(F)c2s1 [Compound A136, (6-(7-(2-amino-7-fluorobenzo-[d]thiazol-4-yl)-6-chloro-8-fluoro-2-(((2R,7aS)-2-fluoro-tetrahydro-1H-pyrrolizin-7a(5H)-yl)methoxy)quinazolin-4-yl)-2,6-diazaspiro[3.5]nonan-2-yl)(1H-1,2,4-triazol-1-yl)-methanone] | greater than 1 fold
N#Cc1c(N)sc2c(F)ccc(-c3c(Cl)cc4c(N5CCC6(CN(C(=O)n7cncn7)C6)C5)nc(OC[C@@]56CCCN5C[C@H](F)C6)nc4c3F)c12 [Compound A277, 4-(4-(2-(1H-1,2,4-triazole-1-carbonyl)-2,6-diazaspiro[3.4]-octan-6-yl)-6-chloro-8-fluoro-2-(((2R,7aS)-2-fluorotetrahydro-1H-pyrrolizin-7a(5H)-yl)meth-oxy)quinazolin-7-yl)-2-amino-7-fluorobenzo[b]thiophene-3-carbonitrile] | greater than 1 fold
Cc1ncn(C(=O)N2CC3CCN(c4nc(OC[C@@]56CCCN5C[C@H](F)C6)nc5c(F)c(-c6ccc(F)c7sc(N)c(C#N)c67)c(Cl)cc45)C3C2)n1 (stereo partly drawn) [Compound A304, 2-amino-4-(6-chloro-8-fluoro-2-(((2R,7aS)-2-fluorotetrahydro-1H-pyrrolizin-7a(5H)-yl)meth-oxy)-4-(5-(3-methyl-1H-1,2,4-triazole-1-carbonyl)hexahydro-pyrrolo[3,4-b]pyrrol-1(2H)-yl)quinazolin-7-yl)-7-fluoro-benzo[b]thiophene-3-carbonitrile] | greater than 1 fold
N#Cc1c(N)sc2c(F)ccc(-c3c(Cl)cc4c(N5CCCC6C5CCN6C(=O)n5cncn5)nc(OC[C@@]56CCCN5C[C@H](F)C6)nc4c3F)c12 (stereo partly drawn) [Compound A184, 4-(4-(1-(1H-1,2,4-triazole-1-carbonyl)octahydro-4H-pyrrolo[3,2-b]pyridin-4-yl)-6-chloro-8-fluoro-2-(((2R,7aS)-2-fluorotetrahydro-1H-pyrrolizin-7a(5H)-yl)methoxy)quinazolin-7-yl)-2-amino-7-fluorobenzo-[b]thiophene-3-carbonitrile] | greater than 1 fold
N#Cc1c(N)sc2c(F)ccc(-c3c(Cl)cc4c(N5CCC6C5CN6C(=O)n5cncn5)nc(OC[C@@]56CCCN5C[C@H](F)C6)nc4c3F)c12 (stereo partly drawn) [Compound A183, 4-(4-(6-(1H-1,2,4-triazole-1-carbonyl)-2,6-diazabicyclo-[3.2.0]heptan-2-yl)-6-chloro-8-fluoro-2-(((2R,7aS)-2-fluoro-tetrahydro-1H-pyrrolizin-7a(5H)-yl)methoxy)quinazolin-7-yl)-2-amino-7-fluorobenzo-[b]thiophene-3-carbonitrile] | greater than 1 fold
C[C@H](Oc1nc(N2CCCCC3(CN(C(=O)n4cncn4)C3)C2)c2cc(Cl)c(-c3ccc(F)c4sc(N)c(C#N)c34)c(F)c2n1)[C@@H]1CCCN1C [Compound A219, 4-(4-(2-(1H-1,2,4-triazole-1-carbonyl)-2,6-diazaspiro[3.6]-decan-6-yl)-6-chloro-8-fluoro-2-((S)-1-((S)-1-methylpyrrol-idin-2-yl)ethoxy)quinazolin-7-yl)-2-amino-7-fluorobenzo-[b]thiophene-3-carbonitrile] | greater than 1 fold

Reference: patent US20240368191A1, “HETEROCYCLIC COMPOUNDS AND USES THEREOF” (Kumquat Biosciences Inc., priority 2021, published 2024)
